## Percent effect of library compounds

Protein sequences, listed by entry. Tags and fused reporters are not part of them. Residues count along the entry.
UniProt I6X8D2, whole entry: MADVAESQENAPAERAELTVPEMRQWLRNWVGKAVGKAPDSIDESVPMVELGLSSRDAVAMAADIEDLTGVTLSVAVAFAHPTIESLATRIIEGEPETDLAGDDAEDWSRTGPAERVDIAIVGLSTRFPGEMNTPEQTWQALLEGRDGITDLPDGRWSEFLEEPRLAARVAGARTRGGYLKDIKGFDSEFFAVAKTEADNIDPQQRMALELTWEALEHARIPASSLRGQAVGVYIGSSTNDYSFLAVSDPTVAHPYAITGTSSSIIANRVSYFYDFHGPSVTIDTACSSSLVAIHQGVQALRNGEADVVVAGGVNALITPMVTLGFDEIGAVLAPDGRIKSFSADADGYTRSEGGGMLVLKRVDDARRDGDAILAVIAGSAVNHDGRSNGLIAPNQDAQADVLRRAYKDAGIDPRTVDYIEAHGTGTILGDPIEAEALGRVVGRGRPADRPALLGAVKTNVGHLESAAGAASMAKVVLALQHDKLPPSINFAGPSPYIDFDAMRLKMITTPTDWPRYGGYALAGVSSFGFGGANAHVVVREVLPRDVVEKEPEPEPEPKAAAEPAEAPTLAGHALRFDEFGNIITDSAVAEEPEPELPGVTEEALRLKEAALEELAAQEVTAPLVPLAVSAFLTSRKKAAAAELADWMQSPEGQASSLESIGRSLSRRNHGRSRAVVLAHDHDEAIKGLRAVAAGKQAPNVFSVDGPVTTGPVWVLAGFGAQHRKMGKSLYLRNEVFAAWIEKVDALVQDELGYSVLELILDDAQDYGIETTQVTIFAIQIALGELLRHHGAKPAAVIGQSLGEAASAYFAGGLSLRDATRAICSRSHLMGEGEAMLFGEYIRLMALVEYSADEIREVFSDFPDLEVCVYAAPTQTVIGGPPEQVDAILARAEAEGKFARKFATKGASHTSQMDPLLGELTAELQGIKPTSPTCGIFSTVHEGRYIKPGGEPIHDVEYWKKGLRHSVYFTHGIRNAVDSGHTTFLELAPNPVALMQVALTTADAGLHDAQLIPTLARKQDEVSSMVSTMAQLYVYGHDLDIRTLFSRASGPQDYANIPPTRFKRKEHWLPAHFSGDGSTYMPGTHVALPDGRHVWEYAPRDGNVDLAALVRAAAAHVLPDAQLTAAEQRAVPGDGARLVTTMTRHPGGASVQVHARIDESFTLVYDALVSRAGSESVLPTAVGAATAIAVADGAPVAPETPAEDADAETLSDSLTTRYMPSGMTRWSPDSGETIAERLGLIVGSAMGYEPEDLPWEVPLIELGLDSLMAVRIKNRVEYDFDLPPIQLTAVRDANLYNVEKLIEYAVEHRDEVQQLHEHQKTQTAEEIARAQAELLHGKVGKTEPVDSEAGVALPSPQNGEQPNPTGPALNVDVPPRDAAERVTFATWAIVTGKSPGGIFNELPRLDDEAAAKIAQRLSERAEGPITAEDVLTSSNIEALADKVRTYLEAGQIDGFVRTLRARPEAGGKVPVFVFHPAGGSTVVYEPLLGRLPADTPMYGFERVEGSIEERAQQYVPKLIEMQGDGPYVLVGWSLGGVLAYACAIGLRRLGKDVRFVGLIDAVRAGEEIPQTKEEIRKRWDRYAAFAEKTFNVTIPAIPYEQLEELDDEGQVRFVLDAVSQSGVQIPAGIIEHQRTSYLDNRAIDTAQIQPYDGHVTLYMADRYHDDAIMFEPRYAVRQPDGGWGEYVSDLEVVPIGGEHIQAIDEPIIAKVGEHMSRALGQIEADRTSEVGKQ
UniProt A4I591, 1-473: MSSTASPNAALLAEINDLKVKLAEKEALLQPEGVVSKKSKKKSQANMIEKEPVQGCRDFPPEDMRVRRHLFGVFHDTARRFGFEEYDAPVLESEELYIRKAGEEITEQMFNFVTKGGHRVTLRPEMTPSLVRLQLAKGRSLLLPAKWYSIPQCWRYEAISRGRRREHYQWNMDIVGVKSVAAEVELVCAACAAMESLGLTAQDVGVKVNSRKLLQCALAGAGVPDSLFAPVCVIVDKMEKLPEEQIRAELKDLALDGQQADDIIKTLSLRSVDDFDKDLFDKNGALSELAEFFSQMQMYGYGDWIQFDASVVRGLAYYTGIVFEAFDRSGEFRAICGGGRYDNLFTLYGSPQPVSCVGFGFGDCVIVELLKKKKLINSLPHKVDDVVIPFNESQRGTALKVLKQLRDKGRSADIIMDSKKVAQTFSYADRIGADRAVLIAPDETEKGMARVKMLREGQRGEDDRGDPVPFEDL
UniProt P9WPC5, whole entry: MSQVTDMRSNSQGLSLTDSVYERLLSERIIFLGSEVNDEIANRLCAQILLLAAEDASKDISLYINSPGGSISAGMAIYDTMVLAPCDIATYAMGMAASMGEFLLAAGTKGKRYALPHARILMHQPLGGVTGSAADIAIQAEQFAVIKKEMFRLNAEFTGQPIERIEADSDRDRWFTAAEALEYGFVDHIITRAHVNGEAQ
UniProt P9WPC3, whole entry partner: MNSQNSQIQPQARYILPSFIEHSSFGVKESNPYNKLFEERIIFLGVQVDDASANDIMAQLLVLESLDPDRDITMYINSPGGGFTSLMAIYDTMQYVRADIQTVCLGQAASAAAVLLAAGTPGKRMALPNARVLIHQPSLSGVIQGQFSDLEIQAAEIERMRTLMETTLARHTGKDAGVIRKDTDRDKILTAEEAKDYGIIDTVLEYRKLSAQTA
UniProt P9WNZ1, whole entry: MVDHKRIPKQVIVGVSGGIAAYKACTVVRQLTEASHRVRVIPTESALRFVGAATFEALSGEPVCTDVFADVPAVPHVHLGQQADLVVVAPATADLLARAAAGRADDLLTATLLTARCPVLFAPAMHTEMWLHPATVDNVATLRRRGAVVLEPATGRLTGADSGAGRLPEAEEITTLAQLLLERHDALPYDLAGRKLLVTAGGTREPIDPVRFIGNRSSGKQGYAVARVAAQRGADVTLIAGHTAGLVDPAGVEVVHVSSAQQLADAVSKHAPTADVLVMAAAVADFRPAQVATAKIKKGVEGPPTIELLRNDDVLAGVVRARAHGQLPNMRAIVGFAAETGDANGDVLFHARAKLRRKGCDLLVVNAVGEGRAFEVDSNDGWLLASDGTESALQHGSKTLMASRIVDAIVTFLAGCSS

A: 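Polyketide synthase Pks13, Mycobacterium tuberculosis (UniProt I6X8D2). Enzyme assay of the thioesterase domain of polyketide synthase 13; the read-out is not stated. Tested at 30 µM. Higher reads as stronger inhibition (inferred from which compounds were picked for retests). Size under these conditions: about 67,000 compounds, about 300 of them at 50% or above in at least one test.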
B: 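Histidine-tRNA ligase, Leishmania infantum (UniProt A4I591). Enzyme assay of histidyl-tRNA synthetase; the read-out is not stated. Concentration: 30 µM. Higher reads as stronger inhibition (inferred: compounds with an IC50 in retests scored well above the rest). The assay is labelled LdHisRS but filed under L. infantum. About 69,000 compounds were tested under these conditions; 0.6% (about 410) showed 50% or more at least once.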
C: 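Cell assay of Leishmania donovani living inside macrophages; the read-out is not stated. Tested at 30 µM. Direction is inferred from retests: higher values go with stronger inhibition. Size under these conditions: about 69,000 compounds, about 1,000 of them at 50% or above in at least one test.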
D: 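Protease assay of ClpP1P2, read by the AMC dye that it sets free. Target: ClpP1P2, Mycobacterium tuberculosis (UniProt P9WPC5 and UniProt P9WPC3). Tested at 50 µM. Direction is inferred from only a few compounds that gave an IC50; most scored high, so higher reads as stronger inhibition. Most other retested compounds had strongly negative values. About 69,000 compounds were tested under these conditions; 0.015% (about 10) showed 50% or more at least once.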
E: 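Assay of Toxoplasma gondii numbers, read through their beta-galactosidase reporter with a colour substrate. Tested at 10 µM. Higher reads as fewer parasites (inferred from which compounds were picked for retests). Of about 67,000 compounds tested this way, about 260 (0.38%) reached 50% or more in at least one test.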
F: 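Enzyme assay of CoaBC with a phosphate dye (Biomol Green) read at 650 nm. Target: Coenzyme A biosynthesis protein CoaBC, Mycobacterium tuberculosis (UniProt P9WNZ1). Concentration: 30 µM. Higher reads as stronger inhibition, judged from the few compounds that gave an IC50. Most strong results did not repeat in a second test. Size under these conditions: about 67,000 compounds, about 40 of them at 50% or above in at least one test.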

Each number is a percent effect as filed. The record does not define 0% and 100%; most values in the screen are far below 50% and negative numbers occur (in some assays of this library far below -100). The compounds are a random part of those screened. Two or more numbers in one place are separate tests of the same structure; such repeats can differ widely. A dash means the value is not listed here; it may have been measured.

compound	A	B	C	D	E	F
NCCC1CN(c2nc(-c3ccccc3)nc3c2CCNC3)CCO1 (stereo not drawn)	-2.428	20.97	44.56	-22.82	14.95	2.788
[H][C@@]12CCN(C(=O)c3cccc(F)c3)[C@]1([H])CN(C(=O)c1ccsc1)C2	-	-	-0.6243	-	-1.866	-
O=c1cccnn1CC1CN(c2ncc(F)cn2)Cc2nccn2C1 (stereo not drawn)	-12.13	15.28	3.614	-10.89	6.165	-7.522
CCCc1cc(C(=O)N2C[C@@H](C)[C@](O)(C3CCC3)C2)[nH]n1	-3.764	-8	10.11	-1.439	-3.018	1.653
CC(C)=CCS(=O)(=O)Cc1noc(CC(C)C)n1	-19.41	8.511	-10.85	11.16	-17.22	0
CCO[C@H]1CO[C@@]2(CCCN(C(=O)c3ccc(OC)c(F)c3)C2)C1	-9.578	-0.885	-51.9 and 5.283	-1.92	1.806	-11.16
CC(C)N1CCCC1c1nc(N(C)C)ncc1I (stereo not drawn)	-1.925	11.43	19.09	0.9362	-15.35	7.282
Cc1noc([C@@H](C)NCc2ccc(F)cc2)c1C(=O)O.Cl	-	-	35.74	-	1.264	-
CCNC(=O)N(C)Cc1ccc(SC)c(OC)c1	-8.687	17.31	36.84	7.839	-10.01	11.39
O=C(O)C(F)(F)F.O=C(O)C(F)(F)F.[H][C@@]12CN(C(=O)c3cccc(C)n3)C[C@]1([H])[C@@H]2CC(=O)Nc1cccnc1	-	-	3.537	-	3.33	-
O=C(NCC1CCOC1)c1cc(-c2ccc(Cl)cc2)n[nH]1 (stereo not drawn)	12.23	20.16	-5.784	-6.602	-4.619	7.74
Cc1ccc(N2CCCc3sc(C(=O)NCc4ccncc4)nc32)nn1	6.055	16.22	10.78	-16.63	1.958	8.841
CCCc1nc(C)cc(N2CCC3(CCC(=O)N(CC4CC4)C3)CC2)n1	-3.332	15.09	24.27	-9.038	-0.05316	0.4405
O=C(c1cn(-c2ccccc2Cl)nn1)N1CCN(CCO)CC1	-4.647	12.82	29.74 and 8.991	-14.01	-9.631	-2.545
Cc1nc(N)sc1C(=O)N1CCCC(c2nccn2CCCN(C)C)C1 (stereo not drawn)	-12.78	26.67	32.52	-10.65	-3.615	-38.6
Cc1nc(CCNC(=O)NC2CCN(c3ncccn3)CC2)cs1	-25.71	13.33	33.67	3.98	10.27	-0.2151
COCC1Cn2nnc(-c3cnn(C)c3)c2CN1Cc1ccc(C)s1 (stereo not drawn)	-1.366	15.38	-	-3.56	-	5.176
Cc1c(C(=O)NCCC2CN(C)CCO2)n(C)c2c(C)cccc12 (stereo not drawn)	9.227	24.39	6.541	-2.05	18.6	7.506
CCOCC1CN(C(=O)c2ccnnc2)Cc2cnn(CC)c21 (stereo not drawn)	-17.74	11.93	-	2.839	-	4.26
Cn1c(CO)cnc1SC(C(=O)NC1CC1)c1ccccc1 (stereo not drawn)	-17.82	15.38	7.723	0.6647	7.372	-2
CC(=O)N1CC(=O)N(c2cnn(C)c2)CC12CCN(Cc1ccsc1)C2.O=C(O)C(F)(F)F.O=C(O)C(F)(F)F (stereo not drawn)	-	-	10.37	-	-10.65	-
CCc1oc(C(=O)N[C@@H]2c3ccccc3C[C@@H]2O)cc1C	-18.14	5	-23.94	-1.326	1.991	-8.518
O=C(Nc1cnn(CC(=O)N2CCCCO2)c1)c1ccsc1	-21.37	9.859	3.796	-3.652	16.84	2.288
CN1CC(=O)N(c2cccc(F)c2)CC12CCN(Cc1ccccn1)C2 (stereo not drawn)	-35.13	25.66	-0.5646 and 21.05	0.8248	-2.596	-4.842
NS(=O)(=O)CCCNC(=O)c1cnc(-c2ccsc2)s1	36.23	16.96	10.79	0.1618	2.907	2.066
CC(=O)N1CCOC2(CCCN(C(=O)c3ccc(Cl)cc3)C2)C1 (stereo not drawn)	-6.55	20	42.6	-4.404	-28.77	3.5
O=C(c1cc(=O)[nH]c(=O)[nH]1)N1CCCCC1c1ccc(F)cc1 (stereo not drawn)	-1.123	16.35	-13.92	-11.2	-0.2326	-1.688
Cc1ccc(C(=O)N2CCOC(c3nc(C(C)(C)C)n[nH]3)C2)c(=O)[nH]1 (stereo not drawn)	-9.1	12.33	36.5	-16.17	-0.3793	1.923
Cc1nc(C)n(CC2CCCN2Cc2cc(C)on2)n1 (stereo not drawn)	2.919	26.67	-23.36	-1.797	2.422	7.179
CC(=O)N1CCCCCC1C1CCN(Cc2nnc(C(C)(C)C)o2)CC1 (stereo not drawn)	4.161	15.38	-	6.608	-	-4
Cc1nc(CN2CCOCC3(CCN(c4ncccn4)C3)C2)cs1 (stereo not drawn)	-2.949	17.31	-	3.3	-	-37.89
CCCS(=O)(=O)N1CCC2(CC(C(=O)NCc3cccnc3)=NO2)C1 (stereo not drawn)	-13.96	31.43	-11.07	7.174	-1.915	0.9772
[H][C@@]12COC[C@]1([H])[C@@H](OCC1CCOCC1)CN2C(=O)c1cccn1C	-	-	30.87	-	2.033	-
CC(C)CNC(=O)c1nc(COc2ccc3c(c2)OCO3)no1	13.29	7.609	11.58	-23.12	0.5391	-0.1211
CCc1nc(CN2CCCC(N(C)CCc3cccs3)C2)no1 (stereo not drawn)	18.74	-2.247	-18.53	13.63	8.383	-5.415
Cc1noc(C(C)C)c1C(=O)N1CCCN(Cc2cscn2)CC1	-20.24	24	21.34	18.61	-4.312	11.79
CC(=O)NCC(=O)N1Cc2nccn2CC(CN(C)C(C)C)C1.O=C(O)C(F)(F)F (stereo not drawn)	-	-	0.2162	-	18.73	-
CC(C)(O)CSCCNC(=O)c1cc(F)ccc1F	-8.757	-8.219	-2.625	-4.528	3.559	-2.689
O=C(O)C(F)(F)F.O=C(O)C(F)(F)F.[H][C@@]12CN(CC3CCOC3)C[C@]1([H])CN(c1ncccn1)C2 (stereo partly drawn)	-	-	37.35	-	4.198	-
O=C1CSC(c2cccnc2)c2c(n(C3CCOCC3)[nH]c2=O)N1 (stereo not drawn)	-21.97	7.895	0.298	-2.987	-3.88	1.515
CNc1nc(C(=O)N2CCCN(c3ccnc(C)c3)CC2)cs1	-17.23	13.99	12.91	-1.269	-18.02	0.2469
O=C(Cc1csc(-c2ccco2)n1)N1CCN(c2ccccc2O)CC1	7.509	30.43	29.46	-3.019	-2.636	5.98
CN(C)c1ccc(CN(CCCn2ccnc2)Cc2c[nH]cn2)cc1	-78.28	19.44	-	-2.047	-	5.833
CC(C)Cc1nc(OCC(N)=O)c(C#N)c2c1CCCC2	-15.93	20.51	27.9 and 11.86	-1.499	15.08	2.29
Cc1csc([C@@H]2C[C@@H]3CCN(C(=O)c4cnccn4)C[C@H]3O2)n1	-11.82	13.27	-	1.01	-	-0.6316

The first 3 entries again:

compound	A	B	C	D	E	F
NCCC1CN(c2nc(-c3ccccc3)nc3c2CCNC3)CCO1 (stereo not drawn)	-2.428	20.97	44.56	-22.82	14.95	2.788
[H][C@@]12CCN(C(=O)c3cccc(F)c3)[C@]1([H])CN(C(=O)c1ccsc1)C2	-	-	-0.6243	-	-1.866	-
O=c1cccnn1CC1CN(c2ncc(F)cn2)Cc2nccn2C1 (stereo not drawn)	-12.13	15.28	3.614	-10.89	6.165	-7.522

From ChEMBL document CHEMBL3988442, “University of Dundee, Small-Polar-MMV Screening Library” (2021).